Experimental findings from the supplement of paper PMC10338343 are described below.

± gives the standard deviation. Only a part is listed here, and it is no random draw. Many of these values have a large error.
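Note: 1 nM active piRISC with 0.1 nM target library at 33 °C single turnover.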

In one experiment the test system is MIWI (PIWIL1) piRISC loaded with L1MC piRNA (30 nt). The experiment can be described thus: pre-steady-state target cleavage rate (min^-1); MIWI and MILI are mouse PIWI proteins and EfPiwi is from a freshwater sponge; tags in brackets are library labels; higher = faster piRNA-guided slicing of the target. Particulars: guide: L1MC piRNA 5'p-UAACUAAAUACUAUGCAAGCUGUAGGUCCU; auxiliary factor: 500 nM mouse GTSF1. The essentials: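 Cleave-'n-Seq measured uncleaved targets by sequencing after a transcribed, DNA-blocked target RNA library […] was mixed with 1 nM active affinity-purified piRISC holding one synthetic guide, with or without 500 nM GTSF1 partner protein, at 33 °C in HEPES–potassium acetate buffer for 0–8 or 0–960 min. Counts were normalised to depth and to weakly complementary targets, three trials were pooled, and k3 was capped at 0.0001 min^-1. A burst-and-steady-state fit gave the pre-steady-state cleavage rate.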
For the sequence AGGACCUACUGCUUGGAUAGUAUUUAGUUA, the “pre-steady-state target cleavage rate” value was 1.34 ± 0.052.
For UCCUGGAUGUCGAACGUUAGUAUUUUCUUA, the “pre-steady-state target cleavage rate” value came out at 0.000141 ± 0.035.
Same read-out and setting: the same measure for UCCUGGAUGUCGAACCGUAGUAUUUAGUUA: 0.000217 ± 0.017; for UCCUGGAUGUCGAACGUAUCUAUUUUAGUUA: 0.000127 ± 0.028.

The experiment is the same for the next values; noted with them: guide: L1MC piRNA 5'p-UAACUAAAUACUAUGCAAGCUGUAGGUCCU; auxiliary factor: none (no GTSF1).
Turning to UCGACCUACAGCUUGCAUAGUAUAAUGAAA, the “pre-steady-state target cleavage rate” value turned out to be 0.00217 ± 0.0036.
Same read-out and setting: in the case of UCCACCAACAGCUUGCAUAGUAUUUACAAA it was 0.00316 ± 0.0035.
Same read-out and setting: in the case of “UCGACCUACAGCUUGCAAUCAUAAAUCAAA [g14:g28:cont:t1A]” it was 0.000262 ± 0.013; in that of UCGACCUACAGCUUCGAUAGUAUUUAGAAA, 0.000873 ± 0.0072.
As to “UCCUGCUACAGCUUGCAUAGUAAAAUCAAA [g9:g25:cont:t1A]”, the “pre-steady-state target cleavage rate” value came out at 0.000402 ± 0.014.
On to UCGACCUACAGCAUGCAUAGUAUUUUCAAA, for which the “pre-steady-state target cleavage rate” value turned out to be 0.001 ± 0.0074.
On the same count and under the same terms, in the case of AGGACCUACAGCUUGCAUAGUAUAAACAAA it was 0.00176 ± 0.0045; in that of UCCUGGAUGUCGAACGAUAGUAUUGUAGUUA, 0.000352 ± 0.027.
On the same count and under the same terms, in the case of UCGACCUACAGCUUGCAAUCUAUUUAGAAA it was 0.000361 ± 0.0087; in that of UCCUGGAUGUCGAACCAUAGAUUUUAGUUA, 0.000276 ± 0.021.
In the case of AGGACCUACAGCUUGCAAUGUAUUUAGAAA, the “pre-steady-state target cleavage rate” value stood at 0.00195 ± 0.0032.
The same measure, in the same setting: the same measure for UCGACCUACAGCUAGCAUAGUAUUUACAAA: 0.00166 ± 0.0049; for UCGACCUACAGCUUGGUAAGUAUUUUCAAA: 0.000566 ± 0.0099.
On the same count and under the same terms, in the case of UCGACCUACAGCUUGCAUACGUAUUUAGUUA it was 0.000944 ± 0.009.
Still for that read-out and setting: in the case of “UGGACCUACAGCUUGCUAUCAUAAAUCAAA [g15:g29:cont:t1A]” it was 0.00013 ± 0.022.
For the sequence UGGACCUACACGAUGCAUAGUAUUUAGAAA, the “pre-steady-state target cleavage rate” value was 0.00128 ± 0.0051.
On to UCGACCUACAGCUUGCAUAGUUAAUAGUAA, for which the “pre-steady-state target cleavage rate” value is 0.00227 ± 0.0037.
Turning to UGGACCUACACGUUGCAUAGUAUUUAGAAA, the “pre-steady-state target cleavage rate” value was determined as 0.00209 ± 0.003.
On the same count and under the same terms, in the case of UCGACCUACAGCUUGCAUAGAAUUUACAAA it was 0.00298 ± 0.0032; in that of UCCUGGAUGUCGAACCAUAAUAUUUAGUUA, 0.000104 ± 0.022; in that of “UCCUCCUACAGCUUGCAUAGUAUUAUCAAA [g7:g26:cont:t1A]”, 0.00182 ± 0.004.
On the same count and under the same terms, the same measure for UCCACCUACAGCAACCAUAGUAUUUAGUAA: 0.000593 ± 0.0094; for UCGACCUACAGCUUGCAUAUGUAUUUAGUUA: 0.0012 ± 0.008; for UCCACCUACAGCUUGCUUAGUAUUUAGAAA: 0.00213 ± 0.003.
Same read-out and setting: the same measure for UCGACCUACAGCUUGCAUUCUAUUUAGAAA: 0.00113 ± 0.0048.
Consider UGGACCUACAGCUUCCAUAGUAUUUUGUUA, for which the “pre-steady-state target cleavage rate” value turned out to be 0.00119 ± 0.0045.
Still for that read-out and setting: in the case of AGGUGGUACAGCUUGCAUAGUAUUUACAAA it was 0.00239 ± 0.0025; in that of UGGACCUACAGCUUGCUAUGUAUUUAGAAA, 0.00101 ± 0.0045.
The same measure, in the same setting: the same measure for UCGACCUACAGCUUGCUAGUAUUUAGUUA: 0.00236 ± 0.0035; for UGGACCUACAGCUUGCAUAGUAUAAUGAAA: 0.00204 ± 0.0034; for UCGACCUACAGCUUGGUAAGUAUUUACAAA: 0.000274 ± 0.0081.
Consider UCCACCUACAGCAAGCAUAGUAUUUAGAAA, for which the “pre-steady-state target cleavage rate” value came out at 0.000857 ± 0.0076.
Still for that read-out and setting: the same measure for UCCACCUACAGCUUGCAUAGAUAUUACAAA: 0.000414 ± 0.012; for UCGACCUACAGCUUGCUUAGUAUUUUCAAA: 0.00118 ± 0.0054; for AGCUCCUACAGCUUGCAUAGUAUUUUCAAA: 0.00249 ± 0.0042.
Still for that read-out and setting: in the case of UCCUGGAUGUCGAAGCUUACUAUUUAGUUA it was 0.000686 ± 0.0074.
